Record: PubChem BioAssay AID1159618 (Peter MacCallum Cancer Centre, 2016)
This is a random part of 153 deposited reagents. 111 of all reagents (73%) were called active. 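Migration not corrected for cell number; some knock-downs also lowered nuclei counts, so reduced closure may partly reflect fewer cells.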 Further read-outs or replicates are left out here. Not stated in the record: the time to read-out.

Purpose: 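Find genes whose knock-down reduces blood or lymphatic endothelial cell migration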 (follow-up of hits)
Cells: human HMBEC blood microvascular and HDLEC dermal lymphatic endothelial cells
Knock-down reagent: siRNA pool against human genes, 40 nM
Detection: 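Automated imaging of scratched monolayers; area filled by migrating cells relative to the mean of mock-transfected wells, averaged over two replicates; nuclei also counted per well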
Scale: migration vs mock, HMBEC and migration vs mock, HDLEC: higher = more migration into the scratch
Rule for the call: 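a knock-down counts as active if migrated area in either cell type is under 0.65 of the mock level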
Meaning of the calls: active = migration impaired; inactive = no change

GNAS — cell type with impaired migration = impaired in both blood and lymphatic cells; migration vs mock, HMBEC = 0.493; migration vs mock, HDLEC = 0.177; Call = active
PLB1 — cell type with impaired migration = impaired only in blood endothelial cells; migration vs mock, HMBEC = 0.442; migration vs mock, HDLEC = 0.658; Call = active
DBP — cell type with impaired migration = impaired in both blood and lymphatic cells; migration vs mock, HMBEC = 0.567; migration vs mock, HDLEC = 0.432; Call = active
PPP6R1 — cell type with impaired migration = no change in either cell type; migration vs mock, HMBEC = 0.687; migration vs mock, HDLEC = 0.714; Call = inactive
SYNGAP1 — cell type with impaired migration = impaired in both blood and lymphatic cells; migration vs mock, HMBEC = 0.566; migration vs mock, HDLEC = 0.496; Call = active
APOBEC3D — cell type with impaired migration = impaired in both blood and lymphatic cells; migration vs mock, HMBEC = 0.549; migration vs mock, HDLEC = 0.574; Call = active
CRABP2 — cell type with impaired migration = no change in either cell type; migration vs mock, HMBEC = 0.882; migration vs mock, HDLEC = 0.901; Call = inactive
FBXO7 — cell type with impaired migration = impaired only in blood endothelial cells; migration vs mock, HMBEC = 0.513; migration vs mock, HDLEC = 0.683; Call = active
HPDL — cell type with impaired migration = impaired in both blood and lymphatic cells; migration vs mock, HMBEC = 0.469; migration vs mock, HDLEC = 0.321; Call = active
OR10H4 — cell type with impaired migration = impaired only in lymphatic endothelial cells; migration vs mock, HMBEC = 0.764; migration vs mock, HDLEC = 0.64; Call = active
LIMK1 — cell type with impaired migration = impaired only in lymphatic endothelial cells; migration vs mock, HMBEC = 0.743; migration vs mock, HDLEC = 0.62; Call = active
CASK — cell type with impaired migration = no change in either cell type; migration vs mock, HMBEC = 0.828; migration vs mock, HDLEC = 0.789; Call = inactive
